The list shows a part of the results. Further columns of the screen follow, without active or inactive calls. Compounds called inactive in the main read-out are mostly missing here. The note in brackets gives the kind of curve behind each potency; many fits are weak.
Test: qHTS Assay for Lipid Storage Modulators in Drosophila S3 Cells;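 for cell number change: cells counted by Cell Tracker Red CMTPX staining in the red channel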
Conditions: BODIPY lipid droplet fluorescence, 18-24 h; for cell number change: measured here: cell count max response, cells fed with added oleic acid
Summary of the method: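 Drosophila S3 cells loaded with oleic acid (400 uM, as added) and compounds at several concentrations; lipid droplets imaged by 488-nm laser-scanning cytometry, 500–530 nm intensity and object ratio to cell channel. Percent activity normalized to 20 uM Triacsin C.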

[1] = measured here: lipid fluorescence (Fed channel) AC50, cells fed with added oleic acid
[2] = measured here: cell number channel AC50, cells fed with added oleic acid

| Compound | cell number change [%] | AC50 [1] | AC50 [2] |
| --- | --- | --- | --- |
| CCCCCCCNC(=O)C1(CC2CC(c3ccc(Cl)cc3)=NO2)CCN(C(=O)C2CCCC2)CC1 (stereo unspecified) | 33.7 |  |  |
| COc1cc(NS(=O)(=O)c2ccc(NC(=O)CSC3=NCCS3)cc2)nc(OC)n1 | -11.1 | 0.13 µM [falling, full curve] |  |
| Cc1ccc(S(=O)(=O)NCC2CCC(C(=O)N3CCN(C)CC3)CC2)cc1 (stereo unspecified) | 0.76 | 25.9 µM [rising, single point] |  |
| COc1ccc(OC)c(S(=O)(=O)N2CCCC(C(=O)NCc3ccccn3)C2)c1 (stereo unspecified) | -4.7 |  |  |
| C=CCc1cccc2cc(C(=O)NC)c(=O)oc12 | 9.47 | 0.517 µM [rising, full curve, poor fit] |  |
| COc1cccc(CCN2C(=O)C(=O)N([C@@H](CNCc3ccccc3)Cc3ccccc3F)C[C@@H]2C(C)(C)C)c1 | -34.3 | 0.731 µM [falling, full curve] | 0.731 µM [falling, full curve] |
| C[n+]1ccc(C(=O)NCc2ccccc2)cc1 | 9.89 | 20.6 µM [rising, single point] |  |
| CN(C)c1ccc(C(=O)n2nnc3ccccc32)cc1 | -37.8 | 20.6 µM [falling, single point] | 16.4 µM [falling, single point] |
| CCCCCC(=O)NC(=S)Nc1ccc2oc(=O)ccc2c1 | 17.5 | 2.59 µM [falling, partial curve] |  |
| C/C(CC(=O)Nc1ccc(F)cc1)=N\NC(=O)COc1ccccc1 | 31.4 |  | 13 µM [rising, single point] |
| O=C1OC(c2ccccc2)=C/C1=C/c1cccs1 | 32.2 | 11.6 µM [rising, partial curve, poor fit] | 9.2 µM [rising, single point] |
| Cn1nc(-c2ccc(Cl)cc2)c2cc(C(=O)N3CCCC3)sc21 | 14.2 | 0.082 µM [rising, full curve] |  |
| CCOC(=O)C1(CC2CC2)CCN(C(=O)c2cc(OC)nc3ccccc23)CC1 | -18.9 | 0.0231 µM [falling, full curve, poor fit] |  |
| CC(C)OC(=O)CSc1nc(N)c(C#N)c(-c2cccs2)c1C#N | 1.09 | 6.51 µM [rising, partial curve] | 0.184 µM [rising, full curve, poor fit] |
| CC(=O)N1c2ccc(S(=O)(=O)NCCC(=O)NCCc3cccc(C)c3)cc2CC1C (stereo unspecified) | -4.42 | 0.291 µM [rising, single point] |  |
| COc1ccc(C2(CNC(=O)c3ccccc3)CCOCC2)cc1 | -37.6 |  | 9.2 µM [falling, partial curve] |
| COc1ccc(C(=O)OCC(=O)c2ccc(S(=O)(=O)N3CCCCC3)cc2)c(OC)c1 | 150 |  | 6.51 µM [falling, single point] |
| Cc1ccccc1CS(=O)(=O)c1nnc([C@H](CC(C)C)NC(=O)OC(C)(C)C)o1 | -94.9 | 18.4 µM [falling, partial curve] | 16.4 µM [falling, partial curve, poor fit] |
| CCCN(CC(=O)Nc1cc(C)on1)CC(=O)Nc1ccccc1C | 10.3 |  |  |
| Cc1cccc(C(=O)NC(C(=O)Nc2cccc(S(=O)(=O)N3CCCC3)c2)C(C)C)c1 (stereo unspecified) | 11.2 | 0.58 µM [falling, partial curve, poor fit] | 0.58 µM [falling, partial curve, poor fit] |

| Compound | cell number change [%] | AC50 [1] | AC50 [2] |
| --- | --- | --- | --- |
| CC(=O)c1c(N2CCOCC2)nc2ccc(Cl)cc2c1-c1ccccc1 | 15.2 |  | 4.11 µM [rising, single point] |
| Cc1cc(Br)ccc1NC(=O)CN1C(=O)CCC1=O | 7.13 |  |  |
| CC1=C(C(=O)N2CCCC(C(=O)c3cccc(C(F)(F)F)c3)C2)OCCO1 (stereo unspecified) | -35.5 | 18.4 µM [falling, single point] | 25.9 µM [falling, single point] |
| O=C(CN1CCN(CC(=O)Nc2ccccc2F)CC1)Nc1ccc2c(c1)OCCO2 | -29.6 | 29.1 µM [falling, single point] |  |
| COC(=O)C1SCC2C(=O)N(Cc3ccc(Cl)cc3)CC(=O)N21 (stereo unspecified) | -47 | 29.1 µM [falling, single point] | 23.1 µM [falling, single point] |
| CN(CC(=O)Nc1nc2ccccc2s1)S(=O)(=O)c1ccccc1 |  |  | 4.11 µM [rising, single point] |
| COc1ccc(C(=O)NCCNC(=O)c2ccccn2)cc1 | 50 |  | 18.4 µM [rising, partial curve, poor fit] |
| CNC(=S)N1CCN(c2nc(-c3ccc(F)cc3)cs2)CC1 | -32.9 |  | 20.6 µM [falling, single point] |
| O=C(Nc1ccccc1C(=O)NCc1ccccc1)c1ccccc1 | -22 | 9.2 µM [falling, partial curve] |  |
| CCOC(=O)Nc1ccc(S(=O)(=O)Nc2nccc(C)n2)cc1 | -5.7 |  | 6.51 µM [falling, partial curve] |
| CCSc1nnc(N(CCC(=O)O)CCC(=O)O)s1 | -7.2 | 1.03 µM [falling, partial curve] |  |
| O=S(=O)(NC1CCCCC1N1CCN(c2cccc(Cl)c2)CC1)c1ccccc1 (stereo unspecified) | 18.3 | 4.61 µM [rising, partial curve] |  |
| Cn1cc([N+](=O)[O-])c(C(=O)Nc2cc(Oc3ccccc3)cc([N+](=O)[O-])c2)n1 | -0.853 | 29.1 µM [rising, single point] |  |
| COC(=O)c1sccc1NC(=O)Nc1cccc(C(C)=O)c1 | -5.2 | 0.82 µM [falling, full curve, poor fit] |  |
| CS(=O)(=O)c1ccc(Cl)c(NC(=O)COC(=O)CNC(=O)c2ccc3ccccc3c2)c1 | 9.8 | 1.3 µM [falling, full curve] | 6.51 µM [falling, single point] |
| CC(=O)N1CCc2c(sc(NC(=O)C3CCN(S(=O)(=O)c4cccs4)CC3)c2C(N)=O)C1 | 28.9 |  |  |
| COc1ccc(OCc2cc(C(=O)N3CCN(C4CCCC4)CC3)no2)c(Cl)c1 | -1.76 | 0.116 µM [falling, full curve, poor fit] |  |
| COCCn1c(SCC(=O)N2CCCC2=O)nc2sc(C)c(C)c2c1=O | -22 |  |  |
| CC(C(=O)N1CCN(C=O)CC1)N1C(=O)c2ccccc2C1=O (stereo unspecified) | -6.78 | 23.1 µM [rising, single point] |  |
| Cc1ccccc1-c1nc(-c2ccc(Br)o2)no1 | 63.8 | 23.1 µM [rising, partial curve] | 16.4 µM [rising, partial curve] |

| Compound | cell number change [%] | AC50 [1] | AC50 [2] |
| --- | --- | --- | --- |
| O=C(CCc1ccccc1)NCCSc1ccccc1 | 12.2 | 0.092 µM [falling, full curve, poor fit] | 0.103 µM [falling, full curve, poor fit] |
| CN1C(=O)CSC1=Nc1ccc(Br)cc1 | 10.9 | 0.0651 µM [rising, full curve, poor fit] |  |
| O=C(Nc1ccc(N2CCCC2)c(Cl)c1)c1cccc(-c2cc3ccccc3oc2=O)c1 | 4.81 | 18.4 µM [rising, partial curve] |  |
| Cc1ccc(NC(=O)c2cc([N+](=O)[O-])ccc2N2CCOCC2)cc1C | -11.9 | 3.26 µM [rising, single point] |  |
| COc1ccc(N2CCOCC2)c(NC(=O)c2ccc3c(c2)OCO3)c1 |  | 5.62 µM [rising, single point] | 2.06 µM [falling, partial curve, poor fit] |
| CC(=O)Nc1ccc(S(=O)(=O)Nc2cccc(-c3ccc4nncn4n3)c2)cc1 |  | 0.82 µM [falling, full curve] |  |
| COc1ccc(CC(=O)Oc2ccc(F)c(F)c2)cc1S(=O)(=O)N1CCOCC1 | -26.9 |  | 4.11 µM [falling, partial curve] |
| CCc1nnc(NS(=O)(=O)c2ccc(NC(=O)c3ccc(Cl)cc3)cc2)s1 | 39.3 | 29.1 µM [rising, single point] |  |
| CC1CCc2nc(NC(=O)C3CC3)sc2C1 (stereo unspecified) | 44.7 | 1.3 µM [rising, partial curve] | 6.51 µM [rising, partial curve] |
| O=C1C(Cc2ccccc2)NC(=S)N1c1ccccc1 (stereo unspecified) | 4.87 |  | 0.058 µM [rising, full curve, poor fit] |
| COc1ccc(S(=O)(=O)NC(CC(=O)NCc2ccc3c(c2)OCO3)c2ccco2)cc1 (stereo unspecified) | -7.24 | 4.61 µM [falling, full curve, poor fit] |  |
| COc1ccc(-c2noc(Cc3ccc(Cl)cc3)n2)cc1OC | -11.3 |  |  |
| CC1(C)N=c2ccc([N+](=O)[O-])c(N)c2=[N+]1[O-] | -27 |  |  |
| O=C(NCCc1ccccc1)C(c1ccccc1)N(C(=O)c1csnn1)C1CC1 (stereo unspecified) | 18.7 | 29.1 µM [rising, single point] |  |
| Clc1ccc(CSC2=NCCCN2)cc1Cl | 79.1 | 0.651 µM [rising, single point] | 25.9 µM [rising, partial curve] |
| C=CCn1c(SCc2ccc(Cl)cc2)nc2c1c(=O)[nH]c(=O)n2C | 42.9 | 2.59 µM [rising, full curve, poor fit] | 4.11 µM [rising, full curve] |
| COc1ccc(-c2cn3cc(Br)cnc3n2)cc1 | -11.7 | 0.731 µM [falling, single point] |  |
| N/C(=N\OC(=O)CCCc1ccccc1)c1ccccn1 | -54.7 | 0.00517 µM [rising, full curve, poor fit] | 29.1 µM [falling, single point] |

Copied from the list:
`CC(=O)Nc1ccc(S(=O)(=O)Nc2cccc(-c3ccc4nncn4n3)c2)cc1` – AC50 [1]: 0.82 µM [falling, full curve]
`Cc1ccc(NC(=O)c2cc([N+](=O)[O-])ccc2N2CCOCC2)cc1C` – cell number change [%]: -11.9
`C=CCn1c(SCc2ccc(Cl)cc2)nc2c1c(=O)[nH]c(=O)n2C` – AC50 [1]: 2.59 µM [rising, full curve, poor fit]

From PubChem BioAssay AID2685 (National Center for Advancing Translational Sciences (NCATS), 2010)
